{"sequences": {"note": "Amino acid sequences for entries named in this document (tags omitted). Residues count along the entry.", "UniProt P01009, 25-418": "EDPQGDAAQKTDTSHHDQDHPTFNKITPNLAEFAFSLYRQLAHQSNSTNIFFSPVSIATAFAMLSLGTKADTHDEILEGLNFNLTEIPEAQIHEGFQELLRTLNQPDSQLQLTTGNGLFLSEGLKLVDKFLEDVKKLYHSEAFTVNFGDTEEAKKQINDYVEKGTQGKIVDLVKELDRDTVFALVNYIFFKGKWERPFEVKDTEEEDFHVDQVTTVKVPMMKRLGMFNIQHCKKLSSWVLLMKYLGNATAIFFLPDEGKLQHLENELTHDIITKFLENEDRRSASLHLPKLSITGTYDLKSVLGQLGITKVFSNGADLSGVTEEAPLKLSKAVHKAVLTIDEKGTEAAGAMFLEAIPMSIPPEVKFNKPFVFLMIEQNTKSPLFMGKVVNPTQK"}, "source": "patent US20080279843A1", "about": "“Method For Improving Insulin Sensitivity By Administering an Inhibitor of Antitrypsin” (Essential SkinCare, LLC, priority 2003, published 2008)", "target": "AT (Homo sapiens, UniProt P01009)", "assay": "Prevention of the inhibitory effect of AT on insulin-stimulated glycogen synthesis in differentiated L6 cells (Example 7)", "type": "cell-based", "details": "FIG. 5", "method": "Rat L6 skeletal muscle cells were obtained from the American Type Culture Collection, Rockville, Md. L6 cell monolayers were induced to differentiate in Minimal Essential Medium (MEM) containing 2% (v/v) fetal bovine serum (FBS) and 1% (v/v) antibiotic/antimycotic solution. The cells were fed fresh medium every 48 hours. Myoblast differentiation, which occurred by about the 7-9th day, was monitored by phase contrast microscopy. Differentiated L6 cells are widely used models for studying glucose metabolism in the skeletal muscle. The present study was focused on these cells, because skeletal muscle accounts for about 70-80% of total blood glucose metabolism in the human body.\nTo examine cellular glucose uptake and metabolism, differentiated (attached) cells in 12-well plates were incubated at 37° C. in a CO2 incubator (95% air: 5% CO2) with D-[^14C]glucose (1 μCi/mL) in 2% FBS-containing medium containing 5.5 mM unlabeled glucose for 0.5-6 hours as indicated at the corresponding Figures. […] Cells were washed twice with 3 ml medium to remove traces of medium containing unincorporated radioactivity. […]\nAliquots of the upper and lower phases were taken to scintillation vials to determine the amounts of radiolabeled glucose and total lipids, respectively, by liquid scintillation counting. […] No additional radioactivity could be removed from the well by neutralized 30% KOH. […]", "note": "Entries after “also recorded” stand apart in the source; their conditions may differ. At least one structure is not confirmed: it was looked up by name or label, or the drawing left a doubt."}
{"smiles": "C[C@H](CCC(=O)O)[C@H]1CC[C@H]2[C@@H]3CC[C@@H]4C[C@H](O)CC[C@]4(C)[C@H]3CC[C@]12C", "note": "[LCA, lithocholic acid]", "values": [{"measurement": "Effect of GF or LCA on the inhibitory effect of AT on insulin-stimulated glycogen synthesis", "setting": "25 mM GF or 50 μM LCA added 60 min prior to AT (0.4 mg/ml), 500 nM insulin, 5 hours", "value": "AT had no such inhibitory effect; also recorded: capable of preventing the strong inhibitory effect of AT"}, {"measurement": "Effect of GF or LCA on glycogen synthesis in the absence of AT", "setting": "25 mM GF or 50 μM LCA, without AT", "value": "Neither GF nor LCA had a significant effect"}]}
